In patent US20180362935A1, “A renal cell line with stable transporter expression” (Stichting Katholieke Universiteit, priority 2015, published 2018):

Assays:
S2-OAT1 = target: T1, S2-OAT1 (Homo sapiens, UniProt Q4U2R8); settings: substrate PAH, S2-OAT1, References 49, 52, 34, 54; read-out: IC50 (literature); cited from earlier work
T1 construct: host or cells: S2 cells
T1 sequence (Q4U2R8 1-563): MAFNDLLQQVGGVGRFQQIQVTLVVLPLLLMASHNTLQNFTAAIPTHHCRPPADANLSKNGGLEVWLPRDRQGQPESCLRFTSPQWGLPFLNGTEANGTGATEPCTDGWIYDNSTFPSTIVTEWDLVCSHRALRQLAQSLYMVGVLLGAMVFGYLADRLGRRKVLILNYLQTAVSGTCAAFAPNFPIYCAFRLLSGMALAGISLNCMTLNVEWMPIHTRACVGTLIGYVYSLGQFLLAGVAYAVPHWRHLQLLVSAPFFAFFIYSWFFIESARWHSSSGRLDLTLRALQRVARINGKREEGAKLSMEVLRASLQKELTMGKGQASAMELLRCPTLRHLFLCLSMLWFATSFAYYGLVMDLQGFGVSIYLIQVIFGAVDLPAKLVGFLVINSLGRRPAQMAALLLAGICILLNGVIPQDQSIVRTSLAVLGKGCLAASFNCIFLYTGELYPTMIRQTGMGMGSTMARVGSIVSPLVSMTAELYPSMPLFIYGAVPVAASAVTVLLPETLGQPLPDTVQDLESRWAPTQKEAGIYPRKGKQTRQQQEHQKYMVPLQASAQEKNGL

S2-OAT3 = S2-OAT3 (Homo sapiens, UniProt Q8TCC7); settings: read-out: IC50 (literature); substrate estrone sulfate, S2-OAT3, References 52, 54; cited from earlier work
OAT1 = target: T2, OAT1 (Homo sapiens, UniProt Q4U2R8)
T2 sequence (Q4U2R8 1-550 isoform Q4U2R8-2): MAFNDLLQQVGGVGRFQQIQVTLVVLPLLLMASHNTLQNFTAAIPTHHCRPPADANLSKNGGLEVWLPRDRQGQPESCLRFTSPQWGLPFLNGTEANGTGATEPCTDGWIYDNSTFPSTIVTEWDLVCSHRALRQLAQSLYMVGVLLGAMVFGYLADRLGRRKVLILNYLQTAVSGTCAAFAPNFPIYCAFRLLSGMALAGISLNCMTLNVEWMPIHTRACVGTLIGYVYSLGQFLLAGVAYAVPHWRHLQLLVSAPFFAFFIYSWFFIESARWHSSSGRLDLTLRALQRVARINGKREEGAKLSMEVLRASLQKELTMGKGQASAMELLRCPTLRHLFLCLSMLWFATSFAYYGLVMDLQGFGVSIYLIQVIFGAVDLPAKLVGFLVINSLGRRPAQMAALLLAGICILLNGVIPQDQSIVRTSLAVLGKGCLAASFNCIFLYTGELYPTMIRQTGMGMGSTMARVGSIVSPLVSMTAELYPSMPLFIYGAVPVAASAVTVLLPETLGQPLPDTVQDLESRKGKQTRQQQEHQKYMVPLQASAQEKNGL

CHO-OAT3 = target: T3, CHO-OAT3 (Homo sapiens, UniProt Q8TCC7); settings: substrate Sitagliptin, CHO-OAT3, Reference 51; read-out: IC50 (literature); cited from earlier work
T3 construct: host or cells: CHO
T3 sequence (Q8TCC7 1-542): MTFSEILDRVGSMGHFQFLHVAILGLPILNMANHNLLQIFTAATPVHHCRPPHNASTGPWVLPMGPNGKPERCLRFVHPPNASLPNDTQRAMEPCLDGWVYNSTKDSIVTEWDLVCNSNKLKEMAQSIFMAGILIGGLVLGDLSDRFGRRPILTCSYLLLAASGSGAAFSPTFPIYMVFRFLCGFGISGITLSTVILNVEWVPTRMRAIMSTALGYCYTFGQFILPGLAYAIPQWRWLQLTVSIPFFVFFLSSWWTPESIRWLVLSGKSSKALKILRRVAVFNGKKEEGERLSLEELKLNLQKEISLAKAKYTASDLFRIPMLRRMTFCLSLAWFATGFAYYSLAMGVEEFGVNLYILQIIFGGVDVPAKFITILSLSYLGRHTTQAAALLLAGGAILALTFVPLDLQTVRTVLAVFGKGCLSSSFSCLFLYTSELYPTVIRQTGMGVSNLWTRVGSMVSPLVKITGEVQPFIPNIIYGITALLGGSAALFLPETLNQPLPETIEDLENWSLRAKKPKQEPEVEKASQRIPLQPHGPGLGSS

OAT3 = target: T4, OAT3 (Homo sapiens, UniProt Q8TCC7)
T4 sequence (Q8TCC7 1-542): T3 sequence (Q8TCC7 1-542)

Question: What does the source list for NS(=O)(=O)c1cc(C(=O)O)c(NCc2ccco2)cc1Cl [Furosemide]?
Answer: IC50 (S2-OAT1): 18 µM; IC50 (S2-OAT3): 17.3 µM; IC50 (OAT1): 25 ± 4 µM; IC50 (CHO-OAT3): 1.7 µM; IC50 (OAT3): 2.3 ± 0.4 µM
